Experiment [1] addresses LACE1-FLAG (C-fusion Myc-FLAG-tagged human LACE1 ORF, pCMV6-LACE1) (human) (UniProt Q8WV93). Kind of experiment: co-IP; mitochondria of transfected LACE1 KD HEK293 cells solubilized with 1% Triton X-100 in TBS (2 mg/ml protein); 2 h with anti-FLAG M2 affinity beads at 4°C; five washes with TBS, 0.1% Triton X-100; native elution with 3x FLAG peptide; western blot.
Experiment [2] deals with CLPP-FLAG (C-fusion Myc-FLAG-tagged human CLPP ORF, pCMV6-CLPP) (human) (UniProt Q16740). The experiment is described as above.

Chains of the proteins cited; added tags and fusions are not shown.
UniProt Q8WV93: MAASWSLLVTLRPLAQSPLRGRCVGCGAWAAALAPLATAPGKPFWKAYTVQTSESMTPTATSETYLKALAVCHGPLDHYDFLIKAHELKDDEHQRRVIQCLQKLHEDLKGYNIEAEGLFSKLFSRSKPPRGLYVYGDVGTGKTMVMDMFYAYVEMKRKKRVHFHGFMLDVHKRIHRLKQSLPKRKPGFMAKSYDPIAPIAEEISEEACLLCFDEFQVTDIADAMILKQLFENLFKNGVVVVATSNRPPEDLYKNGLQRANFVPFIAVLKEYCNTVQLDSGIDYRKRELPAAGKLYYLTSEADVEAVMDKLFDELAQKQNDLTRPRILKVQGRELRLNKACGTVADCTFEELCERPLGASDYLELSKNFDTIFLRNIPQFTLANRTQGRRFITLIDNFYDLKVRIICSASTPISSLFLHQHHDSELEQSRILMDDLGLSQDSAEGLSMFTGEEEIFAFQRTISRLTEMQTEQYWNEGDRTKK

No constants are given. Whether binding was seen depends on the method and setting. Binding seen in cells or lysates may run through a third protein. Some binding calls cover weakened binding; strength is not graded here.

As to “p53 tumor suppressor protein (from UniProt P04637 1-393)”, the binding result in experiment [1] is listed as “binds”; in experiment [2], “no binding”.

(Values after PMC5216971.)
